Test results reported in patent publication US20160102316A1, “STRESS TOLERANT PLANTS” (CONSEJO SUPERIOR DE INVESTIGACIONES CIENTIFICAS(CSIC), priority 2013, published 2016).
These are yes or no findings as the source states them, for the method shown. In cells and extracts the contact can be indirect. A yes stands for co-enrichment or nearness to the bait. Other partners may have been found. Sequences can lack the tags named with a protein.

Columns and labels:
DDB1a [1] = molecular target: T1, DDB1a (Arabidopsis, UniProt Q9M0V3 1-1088); assay: tandem affinity purification, mass spectrometry (co-purification)
T1 construct: Endogenous protein in the TAP from Arabidopsis cell cultures; also called DDB1 proteins
T1 sequence (looked up): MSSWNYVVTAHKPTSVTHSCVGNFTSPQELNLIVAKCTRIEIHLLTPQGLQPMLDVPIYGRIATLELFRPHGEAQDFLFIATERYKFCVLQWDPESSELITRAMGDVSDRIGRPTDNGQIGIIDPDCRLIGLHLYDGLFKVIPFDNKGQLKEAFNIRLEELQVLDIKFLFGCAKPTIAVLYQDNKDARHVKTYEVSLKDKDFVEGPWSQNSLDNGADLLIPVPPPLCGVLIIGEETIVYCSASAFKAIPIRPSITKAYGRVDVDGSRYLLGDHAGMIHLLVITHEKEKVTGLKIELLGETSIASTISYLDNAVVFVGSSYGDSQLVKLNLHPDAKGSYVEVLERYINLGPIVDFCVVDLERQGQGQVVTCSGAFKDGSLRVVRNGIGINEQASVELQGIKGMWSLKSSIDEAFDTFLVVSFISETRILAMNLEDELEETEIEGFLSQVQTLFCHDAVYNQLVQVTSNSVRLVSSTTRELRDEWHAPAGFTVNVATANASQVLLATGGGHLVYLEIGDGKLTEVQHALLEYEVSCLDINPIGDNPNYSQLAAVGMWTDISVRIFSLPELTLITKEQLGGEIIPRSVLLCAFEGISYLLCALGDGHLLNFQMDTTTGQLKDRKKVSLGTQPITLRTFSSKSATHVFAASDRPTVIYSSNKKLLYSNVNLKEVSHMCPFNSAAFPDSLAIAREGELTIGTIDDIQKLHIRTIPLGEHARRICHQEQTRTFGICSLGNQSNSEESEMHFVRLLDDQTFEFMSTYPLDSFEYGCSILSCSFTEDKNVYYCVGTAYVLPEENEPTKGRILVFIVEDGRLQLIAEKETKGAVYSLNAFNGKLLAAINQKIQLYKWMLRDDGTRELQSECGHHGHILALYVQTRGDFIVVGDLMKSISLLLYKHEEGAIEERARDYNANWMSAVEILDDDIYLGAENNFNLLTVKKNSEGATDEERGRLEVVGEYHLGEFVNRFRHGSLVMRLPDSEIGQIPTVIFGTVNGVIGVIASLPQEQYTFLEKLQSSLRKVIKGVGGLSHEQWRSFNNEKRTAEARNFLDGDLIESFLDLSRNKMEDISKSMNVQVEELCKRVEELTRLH

DDB1b [2] = molecular target: T2, DDB1b (Arabidopsis, UniProt O49552 1-1088); assay: as above
T2 construct: Endogenous protein in the TAP; also called DDB1 proteins
T2 sequence (looked up): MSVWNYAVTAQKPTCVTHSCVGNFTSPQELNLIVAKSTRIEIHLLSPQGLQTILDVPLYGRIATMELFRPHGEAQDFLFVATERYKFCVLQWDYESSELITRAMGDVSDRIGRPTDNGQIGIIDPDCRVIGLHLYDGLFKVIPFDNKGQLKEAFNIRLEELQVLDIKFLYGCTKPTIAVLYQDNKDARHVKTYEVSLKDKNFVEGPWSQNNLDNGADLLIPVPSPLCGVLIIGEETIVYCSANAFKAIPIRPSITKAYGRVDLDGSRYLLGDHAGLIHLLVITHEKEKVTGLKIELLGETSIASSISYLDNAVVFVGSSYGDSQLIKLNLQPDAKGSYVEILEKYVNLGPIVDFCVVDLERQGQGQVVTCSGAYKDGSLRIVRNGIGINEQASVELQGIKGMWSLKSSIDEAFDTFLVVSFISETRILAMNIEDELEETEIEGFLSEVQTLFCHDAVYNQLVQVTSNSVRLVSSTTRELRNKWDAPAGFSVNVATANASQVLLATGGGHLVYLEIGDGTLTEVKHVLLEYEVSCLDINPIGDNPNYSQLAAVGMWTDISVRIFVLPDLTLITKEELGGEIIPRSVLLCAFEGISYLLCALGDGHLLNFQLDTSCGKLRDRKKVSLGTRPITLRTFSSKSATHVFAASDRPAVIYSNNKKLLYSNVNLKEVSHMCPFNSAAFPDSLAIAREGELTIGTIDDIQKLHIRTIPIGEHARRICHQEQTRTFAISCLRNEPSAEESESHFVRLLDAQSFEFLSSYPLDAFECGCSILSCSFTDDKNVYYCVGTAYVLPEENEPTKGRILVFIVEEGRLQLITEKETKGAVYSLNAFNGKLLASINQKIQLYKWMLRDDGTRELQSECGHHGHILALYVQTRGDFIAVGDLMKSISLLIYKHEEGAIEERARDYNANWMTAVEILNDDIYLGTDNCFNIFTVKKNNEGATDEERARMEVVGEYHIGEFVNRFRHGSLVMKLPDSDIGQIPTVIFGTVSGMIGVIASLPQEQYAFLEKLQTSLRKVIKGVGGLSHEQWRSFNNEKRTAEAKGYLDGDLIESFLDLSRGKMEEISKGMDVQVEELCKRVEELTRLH

DDB1a [3] = molecular target: T1, DDB1a; assay: tandem affinity purification from Arabidopsis cell cultures, mass spectrometry (co-purification)
DDB1b [4] = molecular target: T2, DDB1b; assay: as above

binding (DDB1a [1]): binds
binding (DDB1b [2]): binds
binding (DDB1a [3]): binds
binding (DDB1b [4]): binds
B1: C-terminal TAP-tagged DDA1 (GS-tagged DDA1 fusion) (protein, not shown: small tags and cut ends)
chain: MASILGDLPSFDPHNFSQHRPSDPSNPSKMVPTTYRPTHNRTLPPPDQVITTEVKNILIRSFYQRAEEKLRPKRPATDHLAAEHVNKHFRAASSSSSTQGL
